This passage reports survivor count and T/C results from PubChem BioAssay AID294 (DTP/NCI, 2004).

For this assay, the system named is MX-1 breast xenograft, nude mice, tumor weight change. The assay can be described thus: NCI In Vivo Anticancer Drug Screen. Data for tumor model Human Mammary Carcinoma MX-1 Xenograft (subcutaneous) in NU/NU Swiss (nude) mice. The conditions noted are these: T/C endpoint: optimum tumor weight change, schedule: Q04DX003 (ip), higher T/C = larger tumour. How it is done: The antitumor activity of compounds was measured in mice bearing transplantable tumors. Survival or tumor size were measured and the results are expressed as the measurement made in the treated group (T) divided by the measurement made in the vehicle treated control group (C). The tumor model used in this assay is Human Mammary Carcinoma MX-1 Xenograft (subcutaneous) in NU/NU Swiss (nude) mice

Where [1] appears, read: dose: 100.0 mg/kg/injection, vehicle: Klucel (hydroxypropylcellulose) (HPC).

The list does not hold the whole screen: it is rich in T/C values a quarter to a half above the control, in often repeated tests (any T/C) and in doses without a T/C. Other doses and runs of a compound stand elsewhere. T/C: endpoint of the treated group in % of that of the vehicle group. Some T/C values are followed by the survivors on the day toxicity was checked, most often the fifth; where none is given, no animal had died by that day. Schedule codes are those of the source, read here as Q, the interval in days (D) or hours (H), X, the number of doses. Some doses have a count of surviving animals in place of a T/C: the source files T/C as zero there, which appears to mark a toxic dose or a test without result, not a measured value. Survivors were counted at the toxicity check, usually on the fifth day, unless a day is given; later deaths do not show. Some entries were tested several times; the values are given in rising order.

As to `NC(Cc1ccc(N(CCCl)CCCl)cc1)C(=O)O` (stereo unspecified), the survivor count (dose: 20.0 mg/kg/injection, vehicle: Klucel (hydroxypropylcellulose) (HPC)) was 0 of 5 on day 36 and 1 of 5 on day 36; the survivor count (dose: 40.0 mg/kg/injection, vehicle: Klucel (hydroxypropylcellulose) (HPC)) is on record as 0 of 5 on day 36.

`Cc1c(N)nc([C@H](CC(N)=O)NC[C@H](N)C(N)=O)nc1C(=O)N[C@H](C(=O)N[C@H](C)[C@@H](O)CC(=O)N[C@H](C(=O)NC(O[C@@H]1O[C@@H](C)[C@@H](N)[C@@H](O)[C@H]1O)C(O)c1nc(-c2nc(C(=O)NCCCCN)cs2)cs1)[C@@H](C)O)[C@@H](O[C@@H]1O[C@@H](CO)[C@@H](O)[C@H](O)[C@@H]1O[C@H]1O[C@H](CO)[C@@H](O)[C@H](OC(N)=O)[C@@H]1O)c1c[nH]cn1` (stereo partly specified): the survivor count (dose: 64.0 mg/kg/injection, vehicle: saline) is reported as 0 of 5 on day 36 and the survivor count (dose: 128.0 mg/kg/injection, vehicle: saline) is recorded as 0 of 5 on day 36.

As for `CC1CCC(NC(=O)N(CCCl)N=O)CC1` (stereo unspecified), the survivor count reads like this: (dose: 50.0 mg/kg/injection, vehicle: Klucel (hydroxypropylcellulose) (HPC)) 3 of 5 on day 37; under setting [1], 1 of 5 on day 37.

As to `CC(CN1CC(=O)NC(=O)C1)N1CC(=O)NC(=O)C1` (stereo unspecified), the survivor count (dose: 800.0 mg/kg/injection, vehicle: suspension in saline) is 0 of 5 on day 36.

Turning to `N=c1ccn2c(n1)OC1C(O)C(CO)OC12` (stereo unspecified), the survivor count (dose: 1600.0 mg/kg/injection, vehicle: suspension in saline) is given as 2 of 5 on day 36.

With `CN(C)N=Nc1cn[nH]c1C(N)=O`, the survivor count was 3 of 5 on day 39 under setting [1] and 0 of 5 on day 39 (dose: 800.0 mg/kg/injection, vehicle: Klucel (hydroxypropylcellulose) (HPC)). For the same molecule, where the note is “dose: 200.0 mg/kg/injection, vehicle: Klucel (hydroxypropylcellulose) (HPC), evaluated on day 39”, the T/C is 142 % of control [4 of 5 alive on day 39].
